A short description of the series: general procedure: solution-phase peptide synthesis; HATU, DIEA.

Step yield and conjugation yield data for two substances are collected here from US20250325687A1 (MABSOFT THERAPEUTICS (SHANGHAI) CO., LTD., priority 2022, published 2025).

With Boc-GGFG-PAB-OH (h-0473), under “late stage modification step”, the step yield is 96.7% yield. Consider Boc-GGFG-payload (h-0468), for which the conjugation yield (conjugation step) came to 47.2% yield.
